Laboratory results published in patent US20260041793A1, “VIRAL VECTOR” (University of Sheffield, priority 2022, published 2026).

Tested on: Human HEK293T cells
Assay: Expression of CPPs from the CBh promoter in HEK293T cells
Type: cell-based
Settings: RNA polymerase II (CBh) promoter

Substance | expression of CPP from the protein-coding CBh promoter
CPP1: cell permeable peptide, SRSF1 aa89-120 CPP (PRSGRGTGRGGGGGGGGGAPRGRYGPPSRRSE) | no expression
GSWQDLKDHMREAGGGKPIPNPLLGLDSTGGYGRKKRRQRRR [CPP2, cell permeable peptide: SRSF1 amino acids 132-144, a V5 tag and TAT amino acids 47-57] | no expression
